The source of these data is patent publication US20240182596A1, “ANTI-NAPI2B ANTIBODIES AND ANTIBODY-DRUG-CONJUGATES BASED THEREON, THERAPEUTIC METHODS AND USES THEREOF” (Tubulis GmbH, priority 2022, published 2024).

The chains behind the UniProt entries cited, without tags or fusion partners. Where a name states a change or a piece, a line headed by the entry shows the natural chain unless it says otherwise.
UniProt O95436: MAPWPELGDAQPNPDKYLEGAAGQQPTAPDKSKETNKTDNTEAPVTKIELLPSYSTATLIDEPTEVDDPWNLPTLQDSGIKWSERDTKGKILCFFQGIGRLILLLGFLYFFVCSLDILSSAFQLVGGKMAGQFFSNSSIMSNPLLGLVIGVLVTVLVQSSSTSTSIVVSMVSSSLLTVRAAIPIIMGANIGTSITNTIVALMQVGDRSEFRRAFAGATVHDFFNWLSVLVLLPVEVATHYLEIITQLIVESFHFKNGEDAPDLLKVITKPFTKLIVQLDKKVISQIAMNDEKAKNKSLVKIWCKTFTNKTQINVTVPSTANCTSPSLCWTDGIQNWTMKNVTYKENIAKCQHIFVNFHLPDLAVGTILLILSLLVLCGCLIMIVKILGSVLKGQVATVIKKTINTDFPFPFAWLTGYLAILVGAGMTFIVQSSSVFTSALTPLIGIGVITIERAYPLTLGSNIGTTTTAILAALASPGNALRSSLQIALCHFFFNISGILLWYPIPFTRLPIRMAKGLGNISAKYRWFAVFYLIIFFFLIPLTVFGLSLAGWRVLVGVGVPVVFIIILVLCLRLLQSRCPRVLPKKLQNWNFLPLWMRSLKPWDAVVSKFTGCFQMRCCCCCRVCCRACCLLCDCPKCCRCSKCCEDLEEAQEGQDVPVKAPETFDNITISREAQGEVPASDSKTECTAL

Results are given in words; binding and its absence hold for the method and conditions named. Some entries that bind do so weakly or less than the wild type.

In assay [1] the target is purified recombinant human Napi2b antigen consisting of Napi2b-extracellular-loop2 expressed as Fc-fusion-6-His-tagged protein (human) (UniProt O95436). The experiment in a line: ELISA on immobilized recombinant human Napi2b extracellular loop 2-Fc-6-His, HRP anti-human kappa detection. (In general: ELISA stands for enzyme-linked immunosorbent assay.)
The target in assay [2] is human NaPi2b on NaPi2b-positive cell lines OVCAR-3 and HCC-78 (human) (UniProt O95436). Description: flow cytometry on NaPi2b-positive OVCAR-3 cells, Alexa-dye-labeled anti-human IgG H+L secondary antibody, MFI ratio normalized to the non-specific binding control.
Assay [3] has the same target. The experiment in a line: flow cytometry on NaPi2b-positive HCC-78 cells, Alexa-dye-labeled anti-human IgG H+L secondary antibody, MFI ratio normalized to the non-specific binding control.

B1: parental mAb (parental anti-NaPi2b antibody) (antibody, human IgG1, kappa, L234A L235A, V domains shown)
VH: EVQLVQSGAEVVKPGASVKMSCKASGYTFTGYNIHWVKQAPGQGLEWIGAIYPGNGDTSYKQKFRGRATLTADTSTSTVYMELSSLRSEDSAVYYCARGETARATFAYWGQGTLVTVSS
VL: DIQMTQSPSSLSASVGDRVTITCSASQDIGNFLNWYQQKPGKTVKVLIYYTSSLYSGVPSRFSGSGSGTDYTLTISSLQPEDFATYYCQQYSKLPLTFGQGTKLELKR
Take B1: the binding result in assay [1] is on record as “binds”.

B2: Upifitamab (antibody, human IgG1, kappa, L234A L235A, V domains shown)
VH: EVQLVQSGAEVVKPGASVKMSCKASGYTFTGYNIHWVKQAPGQGLEWIGAIYPGNGDTSYKQKFRGRATLTADTSTSTVYMELSSLRSEDSAVYYCARGETARATFAYWGQGTLVTVSS
VL: DIQMTQSPSSLSASVGDRVTITCSASQDIGNFLNWYQQKPGKTVKVLIYYTSSLYSGVPSRFSGSGSGTDYTLTISSLQPEDFATYYCQQYSKLPLTFGQGTKLELKR
As to B2, the binding entry in assay [2] and in assay [3] was “binds” each time.

B3: AV-15 antibody (antibody, human IgG1, kappa, L234A L235A, V domains shown)
VH: EVQLVQSGAEVVKPGASVKMSCKASGYTFTGYNIHWVKQAPGQGLEWIGAIYPGNGDTSYKQKFRGRATLTADTSTSTVYMELSSLRSEDSAVYYCARGETARATFAYWGQGTLVTVSS
VL: DIQMTQSPSSLSASVGDRVTITCSASQDIGKFLNWYQQKPGKTVKVLIYYSSSLYSGVPSRFSGSGSGTDYTLTISSLQPEDFATYYCQQYSKVPLTFGQGTKLELKR
For B3, the binding entry in assay [1] is “binds”.

B4: AV-29 antibody (antibody, human IgG1, kappa, L234A L235A, V domains shown)
VH: EVQLVQSGAEVVKPGASVKMSCKASGYTFTGYNILWVKQAPGQGLEWIGAIYPGNGGTSYKQKFRGRATITADTSTSTVYMELSSLRSEDSAVYYCARGEIARATFAYWGQGTLVTVSS
VL: DIQMTQSPSSLSASVGDRVTITCSASQDIGNFLNWYQQKPGKTVKVLIYYASSLYSGVPSRFSGSGSGTDYTLTISSLQPEDFATYYCQQYSKLPLTFGQGTKLELKR
Turning to B4, in assay [1], the binding entry was “binds”.

B5: AV-21 antibody (antibody, human IgG1, kappa, L234A L235A, V domains shown)
VH: EVQLVQSGAEVVKPGASVKMSCKASGYTFTGQIIHWVKQAPGQGLEWIGAISPGNSGTSYKQKFRGRATLTADTSTSTVYMELSSLRSEDSAVYYCARGETARATFAYWGQGTLVTVSS
VL: DIQMTQSPSSLSASVGDRVTITCSASQDIGNFLNWYQQKPGKTVKVLIYYTSSLYSGVPSRFSGSGSGTDYTLTISSLQPEDFATYYCQQYSKLPLTFGQGTKLELKR
Regarding B5, in assay [1], the binding entry is on record as “binds”.

B6: AV-18 antibody (antibody, human IgG1, kappa, L234A L235A, V domains shown)
VH: EVQLVQSGAEVVKPGASVKMSCKASGYTFTGYIIHWVKQAPGQGLEWIGAIYPGSGATSYKQKFRGRATLTADTSTSTVYMELSSLRSEDSAVYYCARGETARATFAYWGQGTLVTVSS
VL: DIQMTQSPSSLSASVGDRVTITCSASQDIGNFLNWYQQKPGKTVKVLIYYTSSLYSGVPSRFSGSGSGTDYTLTISSLQPEDFATYYCQQYSKLPLTFGQGTKLELKR
B6: the binding entry in assay [1] was “binds”.
